Earlier results on one compound are cited in patent US7705017B2, “Compounds for treatment of neurodegenerative diseases” (En Vivo Pharmaceuticals, Inc., priority 2004, dated 2010).

The structures appear in SMILES notation.

This data set concerns Histone Deacetylase-Like Protein (HDLP). The conditions noted are these: HDLP deacetylates histones in vitro.

For `O=C(CCCCCCC(=O)Nc1ccccc1)NO` [SAHA, suberoylanilide hydroxamic acid], the “inhibition of HDAC-like protein (HDLP)” value is “inhibited”.
